Reference: the supplement of paper PMC10849652
This is one part of the list.

Chains of the proteins cited; added tags and fusions are not shown. Lines headed by an entry give the natural chain unless they say otherwise; changes in a name come on top.
UniProt Q9NYA1, whole entry, looked up: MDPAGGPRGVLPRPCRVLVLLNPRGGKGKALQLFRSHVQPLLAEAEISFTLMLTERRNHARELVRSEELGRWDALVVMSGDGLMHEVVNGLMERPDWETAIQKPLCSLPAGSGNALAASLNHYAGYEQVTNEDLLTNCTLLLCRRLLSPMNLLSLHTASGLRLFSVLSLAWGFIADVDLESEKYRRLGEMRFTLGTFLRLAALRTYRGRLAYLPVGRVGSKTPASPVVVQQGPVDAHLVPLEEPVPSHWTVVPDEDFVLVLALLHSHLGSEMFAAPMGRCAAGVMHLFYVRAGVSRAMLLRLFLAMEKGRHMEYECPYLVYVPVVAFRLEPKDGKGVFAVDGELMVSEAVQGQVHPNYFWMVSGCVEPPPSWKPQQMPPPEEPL
UniProt Q9BYN0: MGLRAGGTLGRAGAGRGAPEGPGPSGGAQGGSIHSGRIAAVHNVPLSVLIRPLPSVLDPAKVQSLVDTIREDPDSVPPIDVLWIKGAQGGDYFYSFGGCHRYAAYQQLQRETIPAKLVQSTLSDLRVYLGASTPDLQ
UniProt Q13243: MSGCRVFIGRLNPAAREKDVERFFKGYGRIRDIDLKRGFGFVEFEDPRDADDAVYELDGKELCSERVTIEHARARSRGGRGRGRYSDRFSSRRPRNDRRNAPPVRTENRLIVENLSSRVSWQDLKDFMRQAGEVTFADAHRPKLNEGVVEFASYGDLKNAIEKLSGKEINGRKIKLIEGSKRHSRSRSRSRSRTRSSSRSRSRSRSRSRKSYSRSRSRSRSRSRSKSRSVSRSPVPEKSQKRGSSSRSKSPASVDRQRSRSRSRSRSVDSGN
UniProt P30626: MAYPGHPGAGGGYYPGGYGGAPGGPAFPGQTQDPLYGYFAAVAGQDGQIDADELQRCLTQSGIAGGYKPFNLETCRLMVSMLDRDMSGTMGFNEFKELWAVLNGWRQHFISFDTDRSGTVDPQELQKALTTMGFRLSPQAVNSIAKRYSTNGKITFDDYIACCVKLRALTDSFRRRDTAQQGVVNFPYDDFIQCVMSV
UniProt P16150: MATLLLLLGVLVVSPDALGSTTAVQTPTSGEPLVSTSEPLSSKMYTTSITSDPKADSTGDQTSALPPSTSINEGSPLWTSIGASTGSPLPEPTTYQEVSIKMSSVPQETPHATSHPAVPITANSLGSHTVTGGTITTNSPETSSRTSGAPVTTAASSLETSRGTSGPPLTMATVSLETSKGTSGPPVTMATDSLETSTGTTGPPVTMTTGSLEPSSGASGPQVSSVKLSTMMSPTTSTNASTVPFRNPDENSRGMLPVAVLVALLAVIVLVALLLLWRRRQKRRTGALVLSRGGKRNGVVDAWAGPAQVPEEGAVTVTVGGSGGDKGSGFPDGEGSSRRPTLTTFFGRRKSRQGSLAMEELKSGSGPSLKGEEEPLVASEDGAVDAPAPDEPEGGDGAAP
UniProt Q8NBT2: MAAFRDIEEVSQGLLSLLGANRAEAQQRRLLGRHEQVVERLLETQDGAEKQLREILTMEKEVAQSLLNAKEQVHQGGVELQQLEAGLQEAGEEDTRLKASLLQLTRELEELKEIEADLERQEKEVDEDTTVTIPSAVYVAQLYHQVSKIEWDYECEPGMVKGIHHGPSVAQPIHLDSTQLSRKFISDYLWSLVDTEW
UniProt Q9UQ35: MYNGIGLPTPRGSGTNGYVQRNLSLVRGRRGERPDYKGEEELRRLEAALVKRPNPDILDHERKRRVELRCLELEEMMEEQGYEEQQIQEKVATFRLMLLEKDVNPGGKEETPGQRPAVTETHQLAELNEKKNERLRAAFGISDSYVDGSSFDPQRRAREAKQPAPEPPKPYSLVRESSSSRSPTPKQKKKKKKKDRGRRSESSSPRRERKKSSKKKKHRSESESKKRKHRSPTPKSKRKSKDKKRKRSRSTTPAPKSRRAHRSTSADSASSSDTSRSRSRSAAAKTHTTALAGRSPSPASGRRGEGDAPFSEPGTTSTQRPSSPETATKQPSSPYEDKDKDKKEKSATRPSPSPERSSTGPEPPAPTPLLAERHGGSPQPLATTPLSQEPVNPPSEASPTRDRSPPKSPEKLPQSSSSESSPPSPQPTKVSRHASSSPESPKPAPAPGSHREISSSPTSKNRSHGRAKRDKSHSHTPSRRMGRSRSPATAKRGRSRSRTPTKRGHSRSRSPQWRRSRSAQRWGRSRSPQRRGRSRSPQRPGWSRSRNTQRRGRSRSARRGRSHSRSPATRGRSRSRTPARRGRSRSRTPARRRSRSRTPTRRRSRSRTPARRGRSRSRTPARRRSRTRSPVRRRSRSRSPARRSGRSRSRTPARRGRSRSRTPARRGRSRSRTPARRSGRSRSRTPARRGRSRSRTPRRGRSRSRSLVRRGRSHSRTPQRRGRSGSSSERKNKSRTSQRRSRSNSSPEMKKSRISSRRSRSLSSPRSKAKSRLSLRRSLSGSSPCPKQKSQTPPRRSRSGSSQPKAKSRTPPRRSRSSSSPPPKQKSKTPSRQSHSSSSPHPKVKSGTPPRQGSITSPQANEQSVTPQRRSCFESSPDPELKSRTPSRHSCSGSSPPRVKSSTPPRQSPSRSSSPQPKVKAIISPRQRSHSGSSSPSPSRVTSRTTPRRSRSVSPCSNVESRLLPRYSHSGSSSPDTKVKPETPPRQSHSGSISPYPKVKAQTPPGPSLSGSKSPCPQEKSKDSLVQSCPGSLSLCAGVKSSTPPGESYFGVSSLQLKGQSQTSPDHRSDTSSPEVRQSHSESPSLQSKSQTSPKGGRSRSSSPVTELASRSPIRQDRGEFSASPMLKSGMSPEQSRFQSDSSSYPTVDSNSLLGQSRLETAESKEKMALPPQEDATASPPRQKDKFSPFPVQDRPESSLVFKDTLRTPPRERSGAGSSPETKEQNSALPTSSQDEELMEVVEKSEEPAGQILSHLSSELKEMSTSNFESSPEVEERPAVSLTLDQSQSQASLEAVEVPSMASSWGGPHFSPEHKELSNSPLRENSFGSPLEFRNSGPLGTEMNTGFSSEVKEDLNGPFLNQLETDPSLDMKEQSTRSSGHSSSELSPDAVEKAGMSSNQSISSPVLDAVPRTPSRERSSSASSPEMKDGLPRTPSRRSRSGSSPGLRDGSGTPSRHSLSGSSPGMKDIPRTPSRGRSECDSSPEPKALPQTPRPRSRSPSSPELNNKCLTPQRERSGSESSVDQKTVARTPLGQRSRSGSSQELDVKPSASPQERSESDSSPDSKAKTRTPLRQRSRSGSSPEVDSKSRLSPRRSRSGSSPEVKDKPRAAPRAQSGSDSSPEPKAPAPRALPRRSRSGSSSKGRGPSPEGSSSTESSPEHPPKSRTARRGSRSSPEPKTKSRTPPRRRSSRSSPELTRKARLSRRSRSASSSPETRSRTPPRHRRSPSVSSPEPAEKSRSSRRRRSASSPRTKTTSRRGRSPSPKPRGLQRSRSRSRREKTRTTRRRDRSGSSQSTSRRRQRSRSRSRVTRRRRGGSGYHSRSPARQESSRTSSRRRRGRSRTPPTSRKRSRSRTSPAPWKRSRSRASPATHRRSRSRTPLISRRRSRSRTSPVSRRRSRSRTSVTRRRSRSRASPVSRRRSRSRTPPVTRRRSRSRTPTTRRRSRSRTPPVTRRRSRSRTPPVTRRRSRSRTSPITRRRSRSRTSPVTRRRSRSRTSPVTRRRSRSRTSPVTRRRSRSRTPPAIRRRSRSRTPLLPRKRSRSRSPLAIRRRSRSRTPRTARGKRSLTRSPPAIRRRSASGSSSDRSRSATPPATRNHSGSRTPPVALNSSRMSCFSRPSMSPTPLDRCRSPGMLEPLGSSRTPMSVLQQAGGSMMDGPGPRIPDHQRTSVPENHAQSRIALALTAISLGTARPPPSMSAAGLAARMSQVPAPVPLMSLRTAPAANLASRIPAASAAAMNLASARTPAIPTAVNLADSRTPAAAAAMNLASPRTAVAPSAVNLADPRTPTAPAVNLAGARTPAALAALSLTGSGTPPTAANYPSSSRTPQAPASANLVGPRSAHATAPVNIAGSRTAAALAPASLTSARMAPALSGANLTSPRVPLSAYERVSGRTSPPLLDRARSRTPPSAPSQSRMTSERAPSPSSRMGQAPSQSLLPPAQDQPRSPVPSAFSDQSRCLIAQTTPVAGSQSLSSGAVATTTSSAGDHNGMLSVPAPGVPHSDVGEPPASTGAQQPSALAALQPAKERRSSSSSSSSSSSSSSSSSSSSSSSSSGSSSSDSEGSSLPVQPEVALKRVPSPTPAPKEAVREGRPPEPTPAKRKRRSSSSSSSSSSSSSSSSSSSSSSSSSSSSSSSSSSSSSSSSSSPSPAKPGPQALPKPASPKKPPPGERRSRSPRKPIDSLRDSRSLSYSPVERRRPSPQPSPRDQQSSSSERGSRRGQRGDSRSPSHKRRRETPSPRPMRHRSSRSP
UniProt Q9Y365: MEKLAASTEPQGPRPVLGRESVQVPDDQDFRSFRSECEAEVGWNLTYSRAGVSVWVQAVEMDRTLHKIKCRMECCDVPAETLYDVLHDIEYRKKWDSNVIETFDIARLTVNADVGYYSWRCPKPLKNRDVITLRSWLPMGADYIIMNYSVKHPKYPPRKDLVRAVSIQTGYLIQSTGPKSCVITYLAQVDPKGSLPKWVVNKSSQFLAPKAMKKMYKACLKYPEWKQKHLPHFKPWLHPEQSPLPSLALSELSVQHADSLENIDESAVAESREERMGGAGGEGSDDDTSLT
UniProt Q69YQ0: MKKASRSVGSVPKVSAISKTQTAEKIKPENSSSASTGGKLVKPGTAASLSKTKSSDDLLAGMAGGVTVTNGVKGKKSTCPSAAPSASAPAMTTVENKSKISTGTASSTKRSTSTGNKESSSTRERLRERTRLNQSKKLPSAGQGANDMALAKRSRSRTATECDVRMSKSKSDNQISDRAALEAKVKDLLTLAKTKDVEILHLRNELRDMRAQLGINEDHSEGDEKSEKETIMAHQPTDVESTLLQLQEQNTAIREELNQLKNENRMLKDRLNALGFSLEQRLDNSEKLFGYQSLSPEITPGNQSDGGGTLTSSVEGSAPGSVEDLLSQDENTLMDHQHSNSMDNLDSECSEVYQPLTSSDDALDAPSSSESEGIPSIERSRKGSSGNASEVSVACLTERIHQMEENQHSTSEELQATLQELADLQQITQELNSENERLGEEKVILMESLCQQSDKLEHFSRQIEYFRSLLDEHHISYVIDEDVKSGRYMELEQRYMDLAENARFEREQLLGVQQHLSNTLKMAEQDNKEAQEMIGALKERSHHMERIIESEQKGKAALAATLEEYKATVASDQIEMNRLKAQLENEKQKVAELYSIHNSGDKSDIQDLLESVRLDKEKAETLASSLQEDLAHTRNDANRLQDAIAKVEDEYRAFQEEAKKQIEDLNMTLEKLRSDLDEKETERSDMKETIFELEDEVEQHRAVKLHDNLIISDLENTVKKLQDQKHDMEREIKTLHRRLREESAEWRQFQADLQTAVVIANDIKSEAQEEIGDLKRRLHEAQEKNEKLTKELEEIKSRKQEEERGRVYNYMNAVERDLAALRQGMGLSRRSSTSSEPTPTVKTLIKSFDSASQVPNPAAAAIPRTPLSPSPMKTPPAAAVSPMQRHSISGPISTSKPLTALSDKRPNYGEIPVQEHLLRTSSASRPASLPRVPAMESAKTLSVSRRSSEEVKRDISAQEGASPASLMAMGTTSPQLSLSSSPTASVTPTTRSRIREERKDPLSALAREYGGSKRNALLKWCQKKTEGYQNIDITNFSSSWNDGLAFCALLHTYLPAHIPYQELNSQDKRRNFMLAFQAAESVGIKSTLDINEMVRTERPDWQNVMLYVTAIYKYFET
UniProt P15907: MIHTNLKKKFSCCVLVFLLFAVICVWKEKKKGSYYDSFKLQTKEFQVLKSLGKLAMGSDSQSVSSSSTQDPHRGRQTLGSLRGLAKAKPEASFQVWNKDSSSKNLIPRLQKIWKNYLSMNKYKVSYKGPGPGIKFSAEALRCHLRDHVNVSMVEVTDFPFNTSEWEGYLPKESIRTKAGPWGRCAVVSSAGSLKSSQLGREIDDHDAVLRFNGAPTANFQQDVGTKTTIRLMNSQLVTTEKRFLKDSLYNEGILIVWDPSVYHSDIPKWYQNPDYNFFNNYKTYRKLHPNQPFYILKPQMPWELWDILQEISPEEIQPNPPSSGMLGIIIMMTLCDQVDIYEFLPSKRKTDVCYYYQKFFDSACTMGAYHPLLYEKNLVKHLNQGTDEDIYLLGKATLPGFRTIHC
UniProt P50502: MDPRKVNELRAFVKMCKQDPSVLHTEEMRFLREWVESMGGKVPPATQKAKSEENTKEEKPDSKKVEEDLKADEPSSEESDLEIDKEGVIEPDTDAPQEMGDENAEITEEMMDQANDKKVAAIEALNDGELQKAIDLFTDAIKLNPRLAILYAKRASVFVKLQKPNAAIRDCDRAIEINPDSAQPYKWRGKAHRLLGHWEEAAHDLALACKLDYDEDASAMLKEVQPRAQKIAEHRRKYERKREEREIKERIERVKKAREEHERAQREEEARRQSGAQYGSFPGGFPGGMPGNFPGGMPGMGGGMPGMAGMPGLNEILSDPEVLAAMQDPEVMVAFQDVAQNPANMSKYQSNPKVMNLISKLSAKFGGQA
UniProt P35325: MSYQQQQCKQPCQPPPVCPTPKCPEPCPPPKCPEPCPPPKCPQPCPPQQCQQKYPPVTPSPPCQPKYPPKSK

Assays:
Test in all cases: log2 fold change, soluble protein after heating vs DMSO (PISA); higher = thermal stabilisation; K562 lysate, 10 uM; active = over 0.2 and 3.5 SD of the protein, either way, in both replicates (recomputed)
[1] = compound: C1=CC=C(C=C1)[C@H](COC2=CC3=C(C=C2)NC(=O)N3)NC(=O)C4=CC=CN(C4=O)CC5=CC(=C(C=C5)F)F
Method in brief: (§1)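 Thermal stability, expressed as log-two fold change relative to solvent controls, is given from duplicates. Crude K562 extract in PBS pH 7.4 with 1 mM MgCl2, at 1 mg/mL protein, was treated with 10 μM compound for 30 min and heated in aliquots for 3 min across 48°C-58°C. After pooling, adjustment to 0.5% NP-40 at 4°C and centrifugation at 21,000xg for 90 min, supernatant protein was measured by TMTpro 16plex LC-MS/MS with channel sums equalised.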

[2] = compound: CC1=C(SC2=C1C(=N[C@H](C3=NN=C(N32)C)CC(=O)N)C4=CC=C(C=C4)Cl)C
Method in brief: as §1

[3] = compound: CC1=C2C(=CC=C1)N=C(N(C2=O)C3=CC=CC=C3C)CN4C=NC5=C(N=CN=C54)N
Method in brief: as §1

[4] = compound: Cc1sc2c(c1C)C(c1ccc(Cl)cc1)=N[C@@H](CC(=O)OC(C)(C)C)c1nnc(C)n1-2
Method in brief: as §1

[5] = compound: c1ccc([C@@H]2C[C@H]2NC2CCNCC2)cc1
Method in brief: as §1

Measured: log2 fold change

SRP19 (UniProt P09132)
inactive: [1] -0.081 | [2] -0.035 | [3] 0.004 | [4] 0.05 | [5] -0.022

STAT3 isoform 2 (UniProt P40763)
inactive: [1] -0.001 | [2] 0.022 | [3] 0.015 | [4] -0.02 | [5] 0.006

SPHK1 isoform 2 (UniProt Q9NYA1)
inactive: [1] -0.014 | [2] -0.034 | [3] -0.038 | [4] -0.003 | [5] 0.092

SRPRB (UniProt Q9Y5M8)
inactive: [1] 0.008 | [2] -0.036 | [3] 0.039 | [4] -0.022 | [5] 0.014

SRXN1 (UniProt Q9BYN0)
inactive: [1] -0.001 | [2] -0.099 | [3] 0.089 | [4] -0.061 | [5] -0.015

SRSF5 (UniProt Q13243)
inactive: [1] 0.01 | [2] 0.031 | [3] 0.004 | [4] 0.008 | [5] -0.028

SRI (UniProt P30626)
inactive: [1] 0.019 | [2] -0.049 | [3] 0.013 | [4] -0.024 | [5] 0.058

SPN (UniProt P16150)
inactive: [1] 0.041 | [2] -0.02 | [3] -0.014 | [4] -0.04 | [5] -0.034

SPPL2A (UniProt Q8TCT8)
inactive: [1] -0.148 | [2] 0.118 | [3] 0.087 | [5] 0.098

SPC24 (UniProt Q8NBT2)
inactive: [1] -0.024 | [2] -0.073 | [3] -0.019 | [4] 0.021 | [5] 0.013

SSBP3 (UniProt Q9BWW4)
inactive: [1] -0.113 | [2] -0.031 | [3] 0.062 | [4] -0.06 | [5] -0.005

SRF (UniProt P11831)
inactive: [1] 0 | [2] 0.063 | [3] -0.121 | [4] -0.005 | [5] 0.027

SRRM2 (UniProt Q9UQ35)
inactive: [1] 0.068 | [2] -0.005 | [3] -0.008 | [4] 0.006 | [5] -0.023

STARD10 (UniProt Q9Y365)
inactive: [1] 0.048 | [2] 0.019 | [3] -0.091 | [4] -0.039 | [5] 0.106

Five successive records out of the list so far, quoted:
SRP19 (UniProt P09132)
inactive: [1] -0.081 | [2] -0.035 | [3] 0.004 | [4] 0.05 | [5] -0.022

STAT3 isoform 2 (UniProt P40763)
inactive: [1] -0.001 | [2] 0.022 | [3] 0.015 | [4] -0.02 | [5] 0.006

SPHK1 isoform 2 (UniProt Q9NYA1)
inactive: [1] -0.014 | [2] -0.034 | [3] -0.038 | [4] -0.003 | [5] 0.092

SRPRB (UniProt Q9Y5M8)
inactive: [1] 0.008 | [2] -0.036 | [3] 0.039 | [4] -0.022 | [5] 0.014

SRXN1 (UniProt Q9BYN0)
inactive: [1] -0.001 | [2] -0.099 | [3] 0.089 | [4] -0.061 | [5] -0.015

(further entries)

SPDL1 (UniProt Q96EA4)
inactive: [1] -0.022 | [2] 0.036 | [3] 0.011 | [4] 0.03 | [5] 0.014

SPECC1L (UniProt Q69YQ0)
inactive: [1] -0.043 | [2] 0.123 | [3] 0.052 | [4] -0.027 | [5] 0.07

ST6GAL1 (UniProt P15907)
inactive: [1] 0.049 | [2] -0.018 | [3] 0.024 | [4] -0.027 | [5] 0.034

SPATS2L isoform 2 (UniProt Q9NUQ6)
inactive: [1] 0.085 | [2] 0.059 | [3] 0 | [5] 0.193

ST13 (UniProt P50502)
inactive: [1] 0.021 | [2] 0.029 | [3] -0.019 | [4] 0.009 | [5] 0.023

SPRR2B (UniProt P35325)
inactive: [1] -0.073 | [2] 0.154 | [5] -0.005

STARD9 (UniProt Q9P2P6)
inactive: [3] 0.007 | [4] -0.166 | [5] 0.064
